Test results from PubChem BioAssay AID2685 (National Center for Advancing Translational Sciences (NCATS), 2010).
The other results are listed elsewhere or left out. The main result of the screen is listed elsewhere. These columns were measured beside it and carry no call. Compounds called inactive in the main read-out are mostly missing here. Potencies come from curve fits of mixed quality, noted in brackets.

Experiment: qHTS Assay for Lipid Storage Modulators in Drosophila S3 Cells;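 as to cell number change: cells counted by Cell Tracker Red CMTPX staining in the red channel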
Conditions: BODIPY lipid droplet fluorescence, 18-24 h; for cell number change: measured here: cell count max response, cells fed with added oleic acid
In short: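 Drosophila S3 cells loaded with oleic acid (400 uM, as added) and compounds at several concentrations; lipid droplets imaged by 488-nm laser-scanning cytometry, 500–530 nm intensity and object ratio to cell channel. Percent activity normalized to 20 uM Triacsin C.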

[1] = measured here: lipid fluorescence (Fed channel) AC50, cells fed with added oleic acid
[2] = measured here: cell number channel AC50, cells fed with added oleic acid

| Structure (SMILES) | cell number change | AC50 [1] | AC50 [2] |
| --- | --- | --- | --- |
| O=C1C2C3C=CC(C2C(=O)N1CCO)C1C(=O)N(CCO)C(=O)C31 (stereo not given) | -16.7% | 0.00651 µM [falling, full curve, poor fit] |  |
| CC(C)c1ccc(S(=O)(=O)N2CCC3(CC2)OCCO3)cc1 | -11.6% | 29.1 µM [falling, single point] |  |
| CCOC(=O)c1c(C=O)c(C)n(Cc2ccc(C)cc2)c1C | -23.5% | 0.92 µM [rising, full curve, poor fit] |  |
| Cc1c(NC(=S)N/N=C/c2ccc([N+](=O)[O-])cc2O)c(=O)n(-c2ccccc2)n1C | 51.6% |  | 7.31 µM [rising, partial curve] |
| Cc1ccc(NC(=O)CSc2nnc(-c3ccccc3C)o2)cc1C | 31.5% | 3.26 µM [rising, single point] | 5.8 µM [rising, full curve, poor fit] |
| CC(=O)Oc1ccc(/C=C2/CCc3ccccc3C2=O)cc1 | -16.6% |  |  |
| CCn1c(=O)c(C(=O)CN2CCN(S(=O)(=O)c3ccccc3)CC2)c(N)n(Cc2ccccc2)c1=O | 2.37% |  | 6.51 µM [rising, single point] |
| CCOC(=O)c1cnc2nc(C)nn2c1N | -16.7% | 23.1 µM [falling, single point] |  |
| O=C(O)C1(NS(=O)(=O)c2ccc(F)c(Cl)c2)CCCCC1 | 7.05% |  |  |
| O=C(NCCN1CCCC1)c1ccc(CS(=O)(=O)c2c(Cl)cccc2Cl)o1 | 1.45% |  |  |
| Cc1cnc(C(=O)NCc2ccc(F)cc2)cn1 | 20% |  | 6.51 µM [rising, single point] |
| CCOC(=O)c1c(C)oc2cc(Br)c(O)c(Br)c12 | -43.6% | 23.1 µM [falling, partial curve] | 32.6 µM [falling, partial curve] |
| O=C(O)C1CCCCC1C(=O)Nc1ccc(Cl)cc1Cl (stereo not given) | -54.1% |  | 29.1 µM [falling, single point] |
| COc1ccc(-c2cc(-c3nnc(COC(=O)CC4CCCC4)o3)c3ccccc3n2)cc1OC | 25.3% | 1.84 µM [rising, full curve, poor fit] | 2.06 µM [rising, full curve, poor fit] |
| Cc1cccc(-n2cc(CNCCN3CCOC3=O)c(-c3cccc(F)c3)n2)c1 | 14.3% | 7.31 µM [rising, partial curve, poor fit] |  |
| NNC(=O)c1ccc(O)cc1O |  | 2.31 µM [rising, full curve] |  |
| CCCc1cc(=O)n2[nH]c(-c3ccc(Cl)cc3)cc2n1 | -30.4% |  | 29.1 µM [falling, single point] |
| O=C(NCCC(=O)N1CCCCCCC1)c1ccc(Br)cc1 | 12.9% | 0.82 µM [falling, full curve] | 0.82 µM [falling, full curve] |
| O=S(=O)(c1ccc(Cl)cc1)n1c(Cc2ccccc2)nc2ccccc21 | -4.05% | 29.1 µM [rising, single point] |  |
| Cc1nn(C)cc1CNC(=O)Nc1cccc(Cl)c1 | 21.8% |  | 6.51 µM [falling, single point] |
| CCc1ccc(-c2csc(NC(=O)C3CC(=O)N(c4ccc5c(c4)OCCO5)C3)n2)cc1 (stereo not given) | -3.6% |  | 0.82 µM [rising, full curve, poor fit] |

| Structure (SMILES) | cell number change | AC50 [1] | AC50 [2] |
| --- | --- | --- | --- |
| CCOC(=O)c1sc(NC(=O)CSc2nncn2C)nc1C |  | 9.2 µM [rising, partial curve] |  |
| CS(=O)(=O)N1CCC(C(=O)Nc2ccc(F)c(Cl)c2)CC1 | -7.33% | 6.51 µM [rising, single point] |  |
| CCc1sc(C(=O)Nc2cc(Cl)ccc2N2CCCCC2)cc1C |  | 3.66 µM [rising, single point] |  |
| CCSc1cc(C)nc2ncnn12 | 43% | 29.1 µM [rising, single point] | 29.1 µM [rising, single point] |
| Cc1cc(F)ccc1S(=O)(=O)Nc1ccccc1C(=O)Nc1ccccc1-c1nc2ccccc2[nH]1 | -83.6% | 0.731 µM [falling, single point] | 29.1 µM [falling, single point] |
| CCn1c(CNC(=O)c2ccccc2F)nnc1SCCOc1ccccc1 | 1.92% |  | 4.11 µM [rising, partial curve, poor fit] |
| N#CCSc1nc(-c2ccccc2)c2cc(Cl)ccc2n1 | 5.26% | 16.4 µM [rising, single point] |  |
| Cn1cccc1C(=S)N1CCOCC1 | -27.8% | 0.206 µM [falling, full curve, poor fit] | 0.291 µM [falling, full curve, poor fit] |
| CC(C)C[C@H]1CN=C(Nc2ccccc2)N1CCCCc1ccccc1 | -4.79% | 9.2 µM [falling, single point] |  |
| COc1ccc(C(OC(=O)c2ccco2)C(=O)NC2CCCC2)cc1OC (stereo not given) | -7.94% |  |  |
| COc1cccc(/C=C2/C(=O)NN(c3ccc(Br)cc3)C2=O)c1O | -36.3% | 29.1 µM [falling, single point] | 8.2 µM [falling, partial curve] |
| O=C(NC1CC1)C1CCC(=O)N1C1CCCC1 (stereo not given) |  | 6.51 µM [falling, single point] | 0.146 µM [falling, full curve, poor fit] |
| Cc1ccc(NC(=O)COC(=O)C2CC(=O)N(Cc3ccccc3)C2)cc1F (stereo not given) | -23.6% | 0.58 µM [falling, single point] | 0.116 µM [falling, full curve, poor fit] |
| COC(=O)c1ccc(OC)c(CN2CCCN(Cc3cc(C)ccc3C)S2(=O)=O)c1 | 19.9% |  | 2.91 µM [rising, single point] |
| O=C(N/N=C/c1cc(Cl)cc([N+](=O)[O-])c1O)c1cccc(S(=O)(=O)N2CCOCC2)c1 | 23% | 29.1 µM [rising, single point] |  |
| CCCCNC(=O)c1sc2nc(C)cc(COC)c2c1-n1cccc1 | -4.43% | 11.6 µM [falling, partial curve, poor fit] |  |
| C/C(=N\OCc1ccc(C#N)cc1)c1cc2ccccc2o1 | 7.93% | 10.3 µM [rising, partial curve] |  |
| CC(C)CCOP(=O)(c1ccccc1)c1ccccc1 | -6.2% | 20.6 µM [falling, single point] |  |
| CC(C)Oc1ccc(S(=O)(=O)N2CCOCC2)cc1NC(=O)CN1C(=O)NC2(CCCC2)C1=O | 7.33% |  |  |
| Cc1nnsc1-c1onc(C)c1C(=O)Nc1cc(Cl)cc(Cl)c1 | -0.679% |  | 0.82 µM [rising, single point] |
| CC(=O)Nc1ccc(NC(=O)COc2ccc(S(=O)(=O)N3CCCC3)cc2)cc1 | -5.26% |  |  |

Reprinted at random: five entries already listed.

| Structure (SMILES) | cell number change | AC50 [1] | AC50 [2] |
| --- | --- | --- | --- |
| Cc1nn(C)cc1CNC(=O)Nc1cccc(Cl)c1 | 21.8% |  | 6.51 µM [falling, single point] |
| CCc1sc(C(=O)Nc2cc(Cl)ccc2N2CCCCC2)cc1C |  | 3.66 µM [rising, single point] |  |
| CS(=O)(=O)N1CCC(C(=O)Nc2ccc(F)c(Cl)c2)CC1 | -7.33% | 6.51 µM [rising, single point] |  |
| O=C(N/N=C/c1cc(Cl)cc([N+](=O)[O-])c1O)c1cccc(S(=O)(=O)N2CCOCC2)c1 | 23% | 29.1 µM [rising, single point] |  |
| CCOC(=O)c1c(C=O)c(C)n(Cc2ccc(C)cc2)c1C | -23.5% | 0.92 µM [rising, full curve, poor fit] |  |

(list continues)

| Structure (SMILES) | cell number change | AC50 [1] | AC50 [2] |
| --- | --- | --- | --- |
| O=[N+]([O-])c1cccc(S(=O)(=O)NCCOc2cccc3cccnc23)c1 | -20.5% | 6.51 µM [falling, single point] |  |
| COCc1c(C(=O)N/N=C(/C)c2cccs2)nnn1-c1nonc1N | 7.21% |  |  |
| O=C(Nc1cccc(S(=O)(=O)N2CCCCC2)c1)c1ccc([N+](=O)[O-])o1 | -40.3% | 0.731 µM [falling, full curve, poor fit] | 0.0231 µM [falling, full curve, poor fit] |
| O=C(CN1CCOCC1)NCc1ccccc1Cl | -10.3% |  |  |
| O=C(COC(=O)/C=C/c1ccc(F)cc1)NC1CCCC1 | 7.5% |  |  |
| CCOC(=O)c1ccc(NC(=S)N(Cc2cccnc2)Cc2ccco2)cc1 | -68.7% | 18.4 µM [falling, single point] | 29.1 µM [falling, single point] |
| O=C(Cc1ccc(Cl)c(Cl)c1)Nc1cccc2ncccc12 | 68.2% |  | 18.4 µM [rising, single point] |
| CCOc1ccc(S(=O)(=O)n2cnc3ccccc32)cc1 |  | 0.651 µM [falling, single point] |  |
| O=C(O)c1cc(C(F)(F)F)nc2c(C(F)(F)F)cccc12 | -14.8% | 18.4 µM [falling, partial curve, poor fit] |  |
| CC1CCN(CCCNC(=O)c2cc3sccc3n2C)CC1 | 15.7% |  |  |
| Cc1ccccc1N1C(=O)CC(Sc2nnc(-c3ccccc3)o2)C1=O (stereo not given) | -87.2% | 25.9 µM [falling, partial curve] | 29.1 µM [falling, single point] |
| CCOC(=O)c1c(NC(=O)CC2SC(N)=NC2=O)sc2c1CCC(C)C2 (stereo not given) | 16.6% | 5.17 µM [rising, single point] |  |
| CC(=O)Cc1nsc(Nc2ccccc2)n1 | -71.5% | 23.1 µM [falling, partial curve] | 25.9 µM [falling, partial curve, poor fit] |
| COc1ccc(-c2nc3scc(-c4ccccc4)n3n2)cc1 | -17.4% | 0.651 µM [rising, single point] |  |
| O=C1C2ON(c3ccccc3)C(c3ccccc3F)C2C(=O)N1c1ccccc1 (stereo not given) | 2.2% | 0.206 µM [falling, partial curve, poor fit] |  |
| O=S(=O)(NCc1ccc2c(c1)OCO2)c1c(F)cc(F)cc1Br | 4.03% |  |  |
| Cc1ccnc(NC(=O)Nc2ccc(Br)cc2Cl)c1 |  | 29.1 µM [rising, single point] |  |
| CC(OC(=O)c1cccs1)C(=O)NCc1ccccc1 (stereo not given) | -31% |  | 10.3 µM [falling, partial curve] |
| COc1ccc(OC)c(N=c2ssnc2Cl)c1 | -65.9% | 29.1 µM [falling, single point] | 18.4 µM [falling, single point] |
